Data reported in publication PMC9192638, “Compact IF2 allows initiator tRNA accommodation into the P site and gates the ribosome to elongation” (Nature Communications, 2022).
These are yes or no findings as the source states them, for the method shown.

By UniProt entry, the sequences of proteins in these tests, tags left out.
UniProt Q9HV55: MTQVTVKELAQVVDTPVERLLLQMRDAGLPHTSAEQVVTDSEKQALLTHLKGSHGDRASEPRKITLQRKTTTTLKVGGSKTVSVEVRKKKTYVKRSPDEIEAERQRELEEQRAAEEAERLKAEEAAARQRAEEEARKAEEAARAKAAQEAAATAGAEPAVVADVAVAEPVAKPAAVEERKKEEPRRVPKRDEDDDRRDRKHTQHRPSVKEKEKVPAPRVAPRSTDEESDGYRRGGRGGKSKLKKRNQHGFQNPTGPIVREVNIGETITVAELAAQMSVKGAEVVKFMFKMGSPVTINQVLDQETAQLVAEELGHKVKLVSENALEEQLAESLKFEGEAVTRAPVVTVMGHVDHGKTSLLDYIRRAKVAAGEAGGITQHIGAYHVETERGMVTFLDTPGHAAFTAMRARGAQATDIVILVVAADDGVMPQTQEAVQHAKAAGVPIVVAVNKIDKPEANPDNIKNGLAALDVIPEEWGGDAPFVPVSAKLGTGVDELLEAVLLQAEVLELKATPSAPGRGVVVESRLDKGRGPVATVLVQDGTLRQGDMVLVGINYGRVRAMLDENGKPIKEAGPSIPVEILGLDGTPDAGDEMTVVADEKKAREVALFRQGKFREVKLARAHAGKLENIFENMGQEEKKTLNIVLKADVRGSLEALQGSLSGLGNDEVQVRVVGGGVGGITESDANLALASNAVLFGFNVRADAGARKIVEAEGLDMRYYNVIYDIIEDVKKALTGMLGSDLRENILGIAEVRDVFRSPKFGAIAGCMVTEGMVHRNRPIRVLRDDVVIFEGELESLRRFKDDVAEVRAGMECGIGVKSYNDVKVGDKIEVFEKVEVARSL

Biological target: T1, ribosomal protein uL6 (Pseudomonas aeruginosa PAO1 (endogenous in purified ribosomes)) (UniProt Q9HWF0)
T1 sequence: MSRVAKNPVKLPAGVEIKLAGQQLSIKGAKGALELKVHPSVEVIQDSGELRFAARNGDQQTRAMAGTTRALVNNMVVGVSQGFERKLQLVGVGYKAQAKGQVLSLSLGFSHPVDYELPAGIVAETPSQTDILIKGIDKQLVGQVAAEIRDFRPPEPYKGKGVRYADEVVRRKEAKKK
Test: cryo-EM structure; non-rotated 70S-IC with compact IF2-GDP, structure I-A (30 S rotated by ~1.4 degrees); same sample as a1, sorted by 3D classification; both purified

Question: For “initiation factor 2 (IF2) from Pseudomonas aeruginosa (from UniProt Q9HV55 1-840)”, which binding is on record?
Answer: Its binding is “no binding”.
